In US20220411496A1:
These are yes or no findings as the source states them, for the method shown. Some results given as binding are weak or reduced against the parent protein; the word gives no strength.

How the values were obtained:
[1] = biological target: T1, mouse LILRB4 on tumor-infiltrating myeloid cells (B16 tumors) (mouse) (UniProt Q64281); experiment: flow cytometry on ectopic mouse tumors
T1 sequence (looked up): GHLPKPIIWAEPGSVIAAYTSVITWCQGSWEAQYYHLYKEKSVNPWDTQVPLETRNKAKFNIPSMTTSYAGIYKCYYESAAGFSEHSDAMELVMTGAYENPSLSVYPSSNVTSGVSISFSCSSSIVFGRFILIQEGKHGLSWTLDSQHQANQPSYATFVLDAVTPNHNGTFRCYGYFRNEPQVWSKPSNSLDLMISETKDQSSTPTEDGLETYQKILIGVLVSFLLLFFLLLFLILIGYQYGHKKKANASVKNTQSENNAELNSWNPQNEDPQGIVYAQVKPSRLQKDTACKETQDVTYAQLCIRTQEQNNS

[2] = biological target: T1, mouse LILRB4 on tumor-infiltrating myeloid cells (B16 tumors) (mouse); experiment: flow cytometry on digested B16 mouse tumors
[3] = biological target: T1, mouse LILRB4 on tumor-infiltrating myeloid cells (B16 tumors) (mouse); experiment: flow cytometry of digested B16 melanoma mouse tumors, overlay on isotype

Measured: binding

B1: anti-LILRB4 (Pi1.5 Clone 1) (antibody, human IgG1, kappa, V domains shown)
VH: EVQLVESGGGLVQPGGSLRLSCAASGFNLSSSYMHWVRQAPGKGLEWVASISSSYGSTYYADSVKGRFTISADTSKNTAYLQMNSLRAEDTAVYYCARAHYVWYGSVYAHSYGGMDYWGQGTLVTVSS
VL: DIQMTQSPSSLSASVGDRVTITCRASQSVSSAVAWYQQKPGKAPKLLIYSASSLYSGVPSRFSGSRSGTDFTLTISSLQPEDFATYYCQQWSGGYSGLITFGQGTKVEIKR
binds: all assays above
